According to PubChem BioAssay AID328 (DTP/NCI, 2004):
The list is a part of this screen's results and no random one: it gathers tests that were run many times, whatever their T/C, doses with no T/C, and many T/C values between a quarter and a half above the control. Further doses and runs are listed elsewhere. T/C gives the treated animals as a percentage of the vehicle group. Some entries give survivors of the animals treated and no T/C: the source files T/C as zero there, which appears to mark a toxic dose or a test without result, not a measured value. Some survivor counts are full or nearly so, which does not show that the dose was tolerated: the source hardly ever lists a survival T/C far under the control, and the zero likely stands for such cases as well. Survivors were counted at the toxicity check, usually on the fifth day, unless a day is given; later deaths do not show. Schedule codes are those of the source, read here as Q, the interval in days (D) or hours (H), X, the number of doses. Some entries hold several experiments; the values are given in rising order. Where survival is the endpoint, the PubChem record calls one and a half times the control and up active, and a quarter to a half above the control has no call in these data; cut-offs in other NCI protocols can differ. Some T/C values are followed by the survivors on the day toxicity was checked, most often the fifth; where none is given, no animal had died by that day.

System: BDF1 mice, P388 leukemia ip, median survival T/C
Assay: NCI In Vivo Anticancer Drug Screen. Data for tumor model P388 Leukemia (intraperitoneal) in B6D2F1 (BDF1) mice
Settings: T/C endpoint: median survival time, higher T/C = longer survival
Outline: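 Compound-treated tumour-bearing mice were compared with vehicle-treated controls. Survival was recorded, and the value is the treated-group measurement divided by the control-group measurement (T/C).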

[1] = dose: 200.0 mg/kg/injection, schedule: Q04DX003 (ip), vehicle: Klucel (hydroxypropylcellulose) (HPC)
[2] = dose: 25.0 mg/kg/injection, schedule: Q01DX009 (ip), vehicle: Klucel (hydroxypropylcellulose) (HPC)
[3] = dose: 100.0 mg/kg/injection, schedule: Q01DX009 (ip), vehicle: Klucel (hydroxypropylcellulose) (HPC)
[4] = dose: 200.0 mg/kg/injection, schedule: Q01DX009 (ip), vehicle: Klucel (hydroxypropylcellulose) (HPC)
[5] = dose: 400.0 mg/kg/injection, schedule: Q01DX009 (ip), vehicle: saline
[6] = dose: 200.0 mg/kg/injection, schedule: Q04DX003 (ip), vehicle: saline with Tween-80
[7] = dose: 100.0 mg/kg/injection, schedule: Q04DX003 (ip), vehicle: saline
[8] = dose: 200.0 mg/kg/injection, schedule: Q04DX003 (ip), vehicle: saline
[9] = dose: 300.0 mg/kg/injection, schedule: Q01DX009 (ip), vehicle: saline
[10] = dose: 25.0 mg/kg/injection, schedule: Q04DX003 (ip), vehicle: saline
[11] = dose: 400.0 mg/kg/injection, schedule: Q04DX003 (ip), vehicle: saline
[12] = dose: 400.0 mg/kg/injection, schedule: Q04DX003 (ip), vehicle: saline with Tween-80
[13] = dose: 50.0 mg/kg/injection, schedule: Q01DX009 (ip), vehicle: saline
[14] = dose: 25.0 mg/kg/injection, schedule: Q01DX009 (ip), vehicle: saline

Structure (SMILES): COc1ccc(C=Nc2ccc(OC(C)=O)cc2)cc1
- T/C (dose: 100.0 mg/kg/injection, schedule: Q01DX009 (ip), vehicle: other): 136 % of control

Structure (SMILES): BrCc1ccc(CBr)c(Br)c1
- survivor count (dose: 50.0 mg/kg/injection, schedule: Q04DX003 (ip), vehicle: Klucel (hydroxypropylcellulose) (HPC)): 5 of 6
- survivor count (dose: 100.0 mg/kg/injection, schedule: Q04DX003 (ip), vehicle: Klucel (hydroxypropylcellulose) (HPC)): 0 of 6
- survivor count [1]: 0 of 6

Structure (SMILES): CCOc1ccc(Nc2c3ccccc3nc3ccccc23)cc1
- T/C (dose: 3.12 mg/kg/injection, schedule: Q01DX009 (ip), vehicle: Klucel (hydroxypropylcellulose) (HPC)): 137 % of control
- T/C (dose: 6.12 mg/kg/injection, schedule: Q01DX009 (ip), vehicle: Klucel (hydroxypropylcellulose) (HPC)): 149 % of control [5 of 6 alive]
- T/C (dose: 12.5 mg/kg/injection, schedule: Q01DX009 (ip), vehicle: Klucel (hydroxypropylcellulose) (HPC)): 137 % of control
- T/C [2]: 126 and 149 % of control
- T/C (dose: 50.0 mg/kg/injection, schedule: Q01DX009 (ip), vehicle: Klucel (hydroxypropylcellulose) (HPC)): 146 % of control
- survivor count [3]: 6 of 6
- survivor count [4]: 1 of 6

Structure (SMILES): NC(CSC(c1ccccc1)(c1ccccc1)c1ccccc1)C(=O)O (stereo unspecified)
- T/C (dose: 4.6 mg/kg/injection, schedule: Q01DX009 (ip), vehicle: Klucel (hydroxypropylcellulose) (HPC)): 127 % of control
- T/C (dose: 7.0 mg/kg/injection, schedule: Q01DX009 (ip), vehicle: Klucel (hydroxypropylcellulose) (HPC)): 145 % of control
- T/C (dose: 11.0 mg/kg/injection, schedule: Q04DX003 (ip), vehicle: Klucel (hydroxypropylcellulose) (HPC)): 131 % of control
- T/C (dose: 16.0 mg/kg/injection, schedule: Q04DX003 (ip), vehicle: Klucel (hydroxypropylcellulose) (HPC)): 127 % of control
- survivor count (dose: 66.7 mg/kg/injection, schedule: Q01DX009 (ip), vehicle: other): 8 of 8
- survivor count [3]: 6 of 6
- survivor count (dose: 150.0 mg/kg/injection, schedule: Q04DX003 (ip), vehicle: saline): 3 of 6

Structure (SMILES): C=CC(O)CN1CC1 (stereo unspecified)
- T/C (dose: 5.0 mg/kg/injection, schedule: Q04DX003 (ip), vehicle: saline): 137 % of control
- survivor count (dose: 20.0 mg/kg/injection, schedule: Q04DX003 (ip), vehicle: saline): 4 of 6

Structure (SMILES): Nc1nc(SCc2ccccc2Cl)c2ncn(C3OC(CO)C(O)C3O)c2n1 (stereo unspecified)
- survivor count [5]: 5 of 6

Structure (SMILES): Cc1cccc(C(=O)NN)c1O
- survivor count (dose: 50.0 mg/kg/injection, schedule: Q01DX009 (ip), vehicle: saline + alcohol): 6 of 6
- survivor count (dose: 200.0 mg/kg/injection, schedule: Q01DX009 (ip), vehicle: saline + alcohol): 3 of 6

Structure (SMILES): CC12CCC3C(CCC4=CC(=O)CCC43C)C1CCC(=O)O2 (stereo unspecified)
- survivor count [4]: 2 of 6
- survivor count (dose: 400.0 mg/kg/injection, schedule: Q01DX009 (ip), vehicle: Klucel (hydroxypropylcellulose) (HPC)): 0 of 6

Structure (SMILES): CCC(C)(OC(C)=O)C(=O)O[C@H]1C(=O)O[C@@H]2C[C@H]3C(C)=CC(=O)[C@@H](O)[C@]3(C)[C@H]3[C@@]4(O)OC[C@]32[C@@H]1[C@@H](C)[C@H]4O (stereo partly specified)
- T/C (dose: 0.5 mg/kg/injection, schedule: Q01DX009 (ip), vehicle: saline): 149 % of control
- T/C (dose: 0.63 mg/kg/injection, schedule: Q01DX009 (ip), vehicle: saline): 142 % of control [3 of 4 alive]
- T/C (dose: 1.0 mg/kg/injection, schedule: Q01DX009 (ip), vehicle: saline): 125 % of control
- T/C (dose: 2.5 mg/kg/injection, schedule: Q01DX009 (ip), vehicle: saline): 142 % of control [3 of 4 alive]
- T/C (dose: 4.0 mg/kg/injection, schedule: Q01DX009 (ip), vehicle: saline): 142 % of control
- survivor count (dose: 8.0 mg/kg/injection, schedule: Q01DX009 (ip), vehicle: saline): 3 of 6

Structure (SMILES): COc1ccc(C(=NO)c2ccc(OC)cc2)cc1
- T/C [5]: 127 % of control

Structure (SMILES): COC(=O)c1ccccc1NC(=O)CCl
- survivor count [6]: 6 of 6

Structure (SMILES): NC(CSC(c1ccccc1)(c1ccccc1)c1ccc(CO)cc1)C(=O)O (stereo unspecified)
- T/C (dose: 35.0 mg/kg/injection, schedule: Q01DX009 (ip), vehicle: Klucel (hydroxypropylcellulose) (HPC)): 145 % of control
- T/C [7]: 125 % of control
- T/C [8]: 125 % of control

Structure (SMILES): OCCC[P+](c1ccccc1)(c1ccccc1)c1ccccc1
- survivor count [1]: 0 of 6

Structure (SMILES): Cc1cccc(NC=O)c1
- T/C (dose: 75.0 mg/kg/injection, schedule: Q01DX009 (ip), vehicle: saline with Tween-80): 136 % of control
- T/C (dose: 75.0 mg/kg/injection, schedule: Q01DX009 (ip), vehicle: saline): 126 % of control
- T/C (dose: 150.0 mg/kg/injection, schedule: Q01DX009 (ip), vehicle: saline with Tween-80): 127 % of control
- T/C (dose: 150.0 mg/kg/injection, schedule: Q01DX009 (ip), vehicle: saline): 126 % of control
- T/C [9]: 126 % of control

Structure (SMILES): CCCCCCCCNC12CC3CC(CC(C3)C1)C2
- survivor count [10]: 6 of 6
- survivor count [8]: 0 of 6
- survivor count [11]: 0 of 6

Structure (SMILES): CN(C)c1ccccc1.[C-]#[O+].[C-]#[O+].[C-]#[O+].[Cr]
- survivor count [6]: 5 of 6
- survivor count [12]: 1 of 6

Structure (SMILES): OC(CCl)COCC#Cc1ccccc1 (stereo unspecified)
- survivor count (dose: 100.0 mg/kg/injection, schedule: Q04DX003 (ip), vehicle: saline with Tween-80): 3 of 6

Structure (SMILES): N#CCN1CCOCC1
- survivor count [9]: 1 of 6
- survivor count [11]: 3 of 6

Structure (SMILES): Cn1cnc([N+](=O)[O-])c1S(=O)(=O)NCN1CCOCC1
- T/C [2]: 129 % of control

Structure (SMILES): COc1cc2c(cc1OC)C(CCN1C(=O)c3ccccc3C1=O)=NCC2
- survivor count [13]: 6 of 6
- survivor count [7]: 2 of 6

Structure (SMILES): CCCCCC(CN(C)C)C(O)/C=C\c1ccccc1 (stereo unspecified)
- survivor count [14]: 6 of 6
- survivor count (dose: 200.0 mg/kg/injection, schedule: Q01DX009 (ip), vehicle: saline): 0 of 6

Structure (SMILES): O=C(O)c1ccc(C(=O)O)c(C(=O)O)c1.[NH-]C1CCCCC1[NH-].[Pt+2]
- T/C (dose: 6.5 mg/kg/injection, schedule: Q01DX001 (ip), vehicle: sodium bicarbonate): 126 % of control
- T/C (dose: 10.8 mg/kg/injection, schedule: Q01DX001 (ip), vehicle: sodium bicarbonate): 129 % of control
- T/C (dose: 18.0 mg/kg/injection, schedule: Q01DX001 (ip), vehicle: sodium bicarbonate): 137 % of control

Structure (SMILES): O=C(CC(O)(C(F)(F)F)C(F)(F)F)c1ccc(F)cc1
- T/C (dose: 200.0 mg/kg/injection, schedule: Q04DX003 (ip), vehicle: other): 130 % of control
- survivor count (dose: 400.0 mg/kg/injection, schedule: Q04DX003 (ip), vehicle: other): 6 of 6

Structure (SMILES): COc1cc(Nc2c3ccccc3nc3ccccc23)cc(OC)c1OC
- T/C (dose: 50.0 mg/kg/injection, schedule: Q01DX009 (ip), vehicle: saline with Tween-80): 130 % of control
- survivor count (dose: 100.0 mg/kg/injection, schedule: Q01DX009 (ip), vehicle: saline with Tween-80): 1 of 6 and 4 of 6
- survivor count (dose: 200.0 mg/kg/injection, schedule: Q01DX009 (ip), vehicle: saline with Tween-80): 1 of 6

Structure (SMILES): OCC1OC(n2cnc3cncnc32)C(O)C1O (stereo unspecified)
- T/C (dose: 6.25 mg/kg/injection, schedule: Q01DX009 (ip), vehicle: saline): 125, 131, 134, 140 % of control
- T/C (dose: 12.5 mg/kg/injection, schedule: Q01DX009 (ip), vehicle: saline): 103, 120, 125, 126 % of control
- T/C (dose: 12.5 mg/kg/injection, schedule: Q04DX003 (ip), vehicle: saline): 127 % of control
- survivor count [14]: 3 of 3 and 6 of 6
- T/C [10]: 136 % of control
- survivor count [13]: 1 of 3 and 6 of 6

Structure (SMILES): CC(=O)OCC(=O)[C@@]1(O)CC[C@H]2[C@@H]3CCC4=CC(=O)CC[C@]4(C)[C@H]3C(=O)C[C@@]21C
- survivor count [12]: 6 of 6

Structure (SMILES): FC(F)(F)COP1SCCS1
- survivor count (dose: 100.0 mg/kg/injection, schedule: Q01DX005 (ip), vehicle: saline with Tween-80): 0 of 5
